Data on 2 substances can be found in PMC5358978, “Nuclear export receptor CRM1 recognizes diverse conformations in nuclear export signals” (eLife, 2017).

Sequences of proteins named here, by UniProt entry; tags and fusion partners are left off. A change or cut given only in a name is not applied to a line headed by its entry.
UniProt O14980: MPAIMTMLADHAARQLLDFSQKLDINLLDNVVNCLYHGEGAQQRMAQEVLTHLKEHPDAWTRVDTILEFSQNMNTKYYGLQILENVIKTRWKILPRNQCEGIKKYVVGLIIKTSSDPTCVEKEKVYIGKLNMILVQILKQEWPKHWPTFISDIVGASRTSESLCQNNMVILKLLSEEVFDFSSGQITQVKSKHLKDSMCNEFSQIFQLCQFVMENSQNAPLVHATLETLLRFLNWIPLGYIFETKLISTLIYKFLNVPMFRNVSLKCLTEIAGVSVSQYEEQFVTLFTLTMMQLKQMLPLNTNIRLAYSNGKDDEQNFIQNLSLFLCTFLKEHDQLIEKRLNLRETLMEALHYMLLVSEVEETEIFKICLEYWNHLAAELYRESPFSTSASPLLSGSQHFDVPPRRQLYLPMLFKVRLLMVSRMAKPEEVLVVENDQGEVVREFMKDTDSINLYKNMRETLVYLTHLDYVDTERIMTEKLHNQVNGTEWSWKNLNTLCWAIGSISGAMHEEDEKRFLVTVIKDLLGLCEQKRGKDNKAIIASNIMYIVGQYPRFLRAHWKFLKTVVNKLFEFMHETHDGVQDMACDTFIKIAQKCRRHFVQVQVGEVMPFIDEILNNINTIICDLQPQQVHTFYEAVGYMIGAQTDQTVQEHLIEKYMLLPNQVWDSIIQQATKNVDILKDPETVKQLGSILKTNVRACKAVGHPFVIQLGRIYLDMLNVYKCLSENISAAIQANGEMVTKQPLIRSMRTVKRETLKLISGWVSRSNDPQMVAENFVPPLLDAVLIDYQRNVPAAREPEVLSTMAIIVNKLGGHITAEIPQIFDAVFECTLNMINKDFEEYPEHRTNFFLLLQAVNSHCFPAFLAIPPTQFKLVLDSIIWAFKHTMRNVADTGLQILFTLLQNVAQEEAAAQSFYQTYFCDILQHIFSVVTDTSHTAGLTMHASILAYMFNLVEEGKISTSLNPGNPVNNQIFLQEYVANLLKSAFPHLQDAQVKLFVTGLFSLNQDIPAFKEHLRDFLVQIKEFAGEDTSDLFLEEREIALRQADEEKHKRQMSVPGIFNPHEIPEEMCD

No constants are given. Whether binding was seen depends on the method and setting. Where a sequence is shown, tags or fusion partners need not be part of it.

Common to all, as to experiment: pull-down; ~5 µg immobilized GST-NESs, 7.5 µM ScRanGTP and 2.5 µM HsCRM1 (wild type or mutant) in 200 µL; both purified
Experiment [1] concerns the target T1, GST-Hxk2 peptide (false positive NES).
T1 sequence: DVPKELMQQIENFEKIFTV

For experiment [2], the target named is T2, GST-COMMD1 peptide (false positive NES).
T2 sequence: KTLSEVEESISTLISQPN

The target in experiment [3] is T3, GST-DEAF1 peptide (false positive NES).
T3 sequence: SWLYLEEMVNSLLNTAQQ

Regarding “human CRM1 mutant HsCRM1(K568M) (from UniProt O14980 1-1071) (receptor)”, the binding entry in experiment [1] is “no binding (tested: 2.5 µM)”.

Take “human CRM1 (HsCRM1), wild type (from UniProt O14980 1-1071) (receptor)”: the binding entry in experiment [1], in experiment [2] and in experiment [3] was “no binding (tested: 2.5 µM)” in each case.
